Taken from: PubChem BioAssay AID1259254 (NCATS, 2017)

Purpose: 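Gene knock-downs that lead to re-replication, shown by excess G2 DNA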 (primary screen)
Cells: human HCT116 colorectal cancer cells
Reagent: single siRNA against human genes
Duration: 3 days
Detection: 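Imaged Hoechst DNA stain sorts each cell into a cycle phase by DNA amount; per plate, G2 fraction set to 0% for non-targeting and 100% for GMNN siRNA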
Scale: G2 robust z-score and G2 cells, % of GMNN control: higher = more G2 cells, more excess DNA replication; raw share of cells in G2: higher = larger share of cells with G2 DNA content
Call rule: 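Active siRNAs have a G2 robust z of 5 or more median absolute deviations over the median, which in these data means about 38% or higher of GMNN control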
In all, the deposit lists about 59,000 reagents; shown is an unselected part. In the full data, about 1,550 (2.6%) are marked active. 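G2 share is only a proxy for re-replication; each gene was hit by three separate siRNAs, and active genes were retested.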 Raw values vary from plate to plate and are shown uncorrected. Entries without a mark were called inactive. The numbers tell different reagents against one gene apart. Reagent sequences are not shown. Not given: the amount of reagent.

gene | reagent | G2 robust z-score | G2 cells, % of GMNN control | raw share of cells in G2 (%)
KLK8 | 1 | -0.52 | -0.694 | 3.65
KLK8 | 2 | -1.04 | -4.35 | 4.04
KLK8 | 3 | -0.62 | -1.4 | 4.41
TMEM254 | 1 | 0.846 | 8.92 | 8.15
TMEM254 | 2 | 1.85 | 16 | 11.3
TMEM254 | 3 | -1.21 | -5.57 | 0.854
WDR87 | 1 | 0.763 | 8.34 | 6.88
WDR87 | 2 | 3.16 | 25.2 | 10.9
WDR87 | 3 | -0.213 | 1.47 | 2.85
PLCB1 | 1 | 0.122 | 3.82 | 7.9
PLCB1 | 2 | 0.701 | 7.9 | 6.57
PLCB1 | 3 | -1.04 | -4.37 | 2.69
D2HGDH | 1 | -0.151 | 1.91 | 6.73
D2HGDH | 2 | 0.735 | 8.14 | 8.14
D2HGDH | 3 | 3.21 | 25.5 | 13.6
IQGAP2 | 1 | 3.44 | 27.2 | 17.5
IQGAP2 | 2 | -0.965 | -3.82 | 4.97
IQGAP2 | 3 | -1.22 | -5.61 | 2.03
PDK1 | 1 | -1.31 | -6.28 | 3.53
PDK1 | 2 | -1.12 | -4.92 | 3.75
PDK1 | 3 | -1.6 | -8.3 | 1.1
IFI6 | 1 | 0.538 | 6.75 | 8.47
IFI6 | 2 | 2.02 | 17.2 | 10.4
IFI6 | 3 | 0.253 | 4.74 | 5.38
C8orf34 | 1 | 1.7 | 14.9 | 10.1
C8orf34 | 2 | -0.53 | -0.763 | 3.1
C8orf34 | 3 | -0.882 | -3.24 | 0.872
IPMK | 1 | 0.568 | 6.96 | 7.75
IPMK | 2 | -0.992 | -4.01 | 3.73
IPMK | 3 | 0.0985 | 3.66 | 4.85
SUGP2 | 1 | -1.46 | -7.27 | 1.49
SUGP2 | 2 | -0.704 | -1.99 | 5.7
SUGP2 | 3 | -0.264 | 1.11 | 6.18
BTN2A3P | 1 | -0.0452 | 2.65 | 5.22
BTN2A3P | 2 | 2.28 | 19 | 11.1
BTN2A3P | 3 | -0.993 | -4.02 | 4.13
SLC22A1 | 1 | -0.976 | -3.9 | 4.37
SLC22A1 | 2 | -1.03 | -4.29 | 3.08
SLC22A1 | 3 | -0.83 | -2.87 | 3.01
AEBP2 | 1 | 1.76 | 15.4 | 8.38
AEBP2 | 2 | -0.247 | 1.23 | 3.59
AEBP2 | 3 | 0.386 | 5.68 | 5.52
MAP4K3 | 1 | -1.33 | -6.41 | 3.49
MAP4K3 | 2 | -0.338 | 0.589 | 5.61
MAP4K3 | 3 | -1.08 | -4.62 | 2.4
RMDN2 | 1 | 1.3 | 12.1 | 7.89
RMDN2 | 2 | -0.449 | -0.191 | 2.85
RMDN2 | 3 | -0.697 | -1.93 | 2.39
TTC34 | 1 | -0.153 | 1.89 | 4.5
TTC34 | 2 | -0.217 | 1.44 | 4.09
TTC34 | 3 | -0.471 | -0.346 | 4.65
TTC34 | 4 | -0.632 | -1.48 | 3.27
TTC34 | 5 | -0.326 | 0.672 | 3.78
TTC34 | 6 | 2.26 | 18.8 | 12.6
STX17-DT | 1 | -0.878 | -3.21 | 2.03
STX17-DT | 2 | -0.132 | 2.04 | 4.41
STX17-DT | 3 | -0.072 | 2.46 | 4.35
SIGLEC1 | 1 | -0.8 | -2.66 | 4.79
SIGLEC1 | 2 | -1.26 | -5.91 | 2.52
SIGLEC1 | 3 | 2.89 | 23.3 | 11.7
PEX10 | 1 | 0.881 | 9.17 | 8.87
PEX10 | 2 | 0.948 | 9.64 | 8.03
PEX10 | 3 | 1.6 | 14.2 | 8.49
TM9SF4 | 1 | -0.0782 | 2.42 | 4.02
TM9SF4 | 2 | 2.32 | 19.3 | 12.5
TM9SF4 | 3 | 2.14 | 18 | 12.1
CTPS1 | 1 | 0.691 | 7.83 | 7.76
CTPS1 | 2 | -1.3 | -6.15 | 1.98
CTPS1 | 3 | 0.399 | 5.78 | 7.1
ZNF486 | 1 | -0.393 | 0.2 | 3.16
ZNF486 | 2 | 0.577 | 7.03 | 5.61
ZNF486 | 3 | -0.665 | -1.71 | 2.93
TMEM161BP1 | 1 | 0.507 | 6.54 | 5.12
TMEM161BP1 | 2 | 0.708 | 7.95 | 6.78
TMEM161BP1 | 3 | 0.029 | 3.17 | 4.4
CDH7 | 1 | 1.38 | 12.7 | 9.49
CDH7 | 2 | -0.0214 | 2.82 | 6.02
CDH7 | 3 | -1.32 | -6.29 | 1.93
P2RY10 | 1 | 2.66 | 21.7 | 13.6
P2RY10 | 2 | -0.634 | -1.5 | 3.99
P2RY10 | 3 | -0.554 | -0.929 | 2.98
CLASRP | 1 | 0.491 | 6.42 | 7.5
CLASRP | 2 | -0.519 | -0.684 | 3.85
CLASRP | 3 | 2.89 | 23.3 | 11.9
RTN2 | 1 | 2.58 | 21.1 | 14
RTN2 | 2 | -0.163 | 1.82 | 4.94
RTN2 | 3 | -0.988 | -3.98 | 1.92

Reformatted: results already given
| gene | reagent | G2 robust z-score | G2 cells, % of GMNN control | raw share of cells in G2 (%) |
| --- | --- | --- | --- | --- |
| IQGAP2 | 3 | -1.22 | -5.61 | 2.03 |
| PDK1 | 1 | -1.31 | -6.28 | 3.53 |
| PDK1 | 2 | -1.12 | -4.92 | 3.75 |
| PDK1 | 3 | -1.6 | -8.3 | 1.1 |
| IFI6 | 1 | 0.538 | 6.75 | 8.47 |
